According to publication PMC5454382:
Results are given in words; binding and its absence hold for the method and conditions named.

Chains of the proteins cited; added tags and fusions are not shown. Lines headed by an entry give the natural chain unless they say otherwise; changes in a name come on top.
UniProt P11362: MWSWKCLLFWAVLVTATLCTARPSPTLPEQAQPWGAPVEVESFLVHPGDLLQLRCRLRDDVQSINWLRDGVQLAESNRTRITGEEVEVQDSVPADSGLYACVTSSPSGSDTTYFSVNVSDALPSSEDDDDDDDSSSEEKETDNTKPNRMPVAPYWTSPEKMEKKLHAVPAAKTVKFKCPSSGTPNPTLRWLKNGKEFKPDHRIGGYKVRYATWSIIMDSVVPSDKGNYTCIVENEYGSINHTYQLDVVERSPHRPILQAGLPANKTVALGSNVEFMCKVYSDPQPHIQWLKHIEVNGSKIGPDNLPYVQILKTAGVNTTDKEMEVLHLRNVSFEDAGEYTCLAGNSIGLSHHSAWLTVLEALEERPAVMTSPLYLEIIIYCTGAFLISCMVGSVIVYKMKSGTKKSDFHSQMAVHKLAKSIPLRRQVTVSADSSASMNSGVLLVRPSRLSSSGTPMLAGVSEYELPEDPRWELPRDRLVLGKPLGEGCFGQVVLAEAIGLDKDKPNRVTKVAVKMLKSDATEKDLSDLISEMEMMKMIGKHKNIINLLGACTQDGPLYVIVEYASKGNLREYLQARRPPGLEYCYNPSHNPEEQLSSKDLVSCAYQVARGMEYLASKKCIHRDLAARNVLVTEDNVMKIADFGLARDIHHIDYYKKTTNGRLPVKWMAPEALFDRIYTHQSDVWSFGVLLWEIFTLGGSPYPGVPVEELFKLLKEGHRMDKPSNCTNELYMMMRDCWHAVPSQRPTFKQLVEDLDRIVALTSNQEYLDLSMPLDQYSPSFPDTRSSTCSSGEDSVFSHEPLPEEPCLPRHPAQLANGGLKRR

Biological target: GST-tagged FGFR1 1-310 truncated fragment (human) (UniProt P11362)
Experiment: pull-down; recombinant proteins from E. coli (Supplementary Fig. 3d,e); which partner was immobilised is not given; both purified

binding: no binding
Substance: His-tagged hCINAP (from UniProt Q9Y3D8 1-172) (enzyme)
